From PubChem BioAssay AID624297 (National Center for Advancing Translational Sciences (NCATS), 2012)
Out of some 340,000 compounds screened, about 6,200 (1.8%) were called active. The inconclusive results got no clear call from the source; some entries with a clear call stand among them for comparison. The call rests on the fitted dose curve; in most records, active means well fitted activation curve with a large enough effect; inconclusive means small, poorly fitted or top-dose-only effect; inactive means no such curve, though single readings can be large or run the other way. Where the call is inconclusive, the potency comes from a doubtful curve fit.

Experiment: A quantitative high throughput screen for small molecules that induce DNA re-replication in SW480 colon adenocarcinoma cells. Further: nearly all actives have a fitted effect of over 55% in size. On re-replication activation: % of control where 0% means no effect.
Conditions: Hoechst DNA content imaging, 48 h; re-replication activation: at 46.1 µM (top of the series) unless noted
Method in brief: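 Image-based DNA-content assay: after two days of treatment, nuclei were labelled with the DNA dye Hoechst and imaged, and hits were compounds raising the count of nuclei showing high fluorescence intensity.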
Potency means the concentration at half of the fitted maximal effect.

Row | SMILES | Potency | re-replication activation
1 | COc1ccc(-c2oc3ncn(Cc4ccco4)c(=N)c3c2-c2ccc(OC)cc2)cc1 | inconclusive: 29.1 µM [activator, single point] | –
2 | O=C1CCCC(O)=C1C(C#Cc1ccccc1)C1=C(O)CCCC1=O | inconclusive: 8.2 µM [activator, single point] | –
3 | CCc1cccc(CC)c1NC(=S)NCc1ccc2[nH]c(C)cc2c1 | inconclusive: 10.3 µM [activator, partial curve] | –
4 | Cc1ccc(NC(=O)CN2C(=O)C(=O)N(C3CCCC3)C2=O)c(Cl)c1 | inactive | –
5 | O=C(COc1ccccc1[N+](=O)[O-])N(Cc1ccco1)C1CCS(=O)(=O)C1 (stereo not given) | inconclusive: 4.11 µM [activator, full curve, poor fit] | –
6 | COCCCn1c(=NC(=O)c2ccncc2)c(C#N)cc2c(=O)n3cccc(C)c3nc21 | inconclusive: 5.8 µM [activator, full curve] | –
7 | CC(=O)Nc1ccc(N=Nc2ccccc2)cc1 | inconclusive: 6.51 µM [activator, single point] | –
8 | CC(=O)Nc1ccc2c(CSc3nncs3)cc(=O)oc2c1 | inconclusive: 11.6 µM [activator, single point] | –
9 | CC(=O)Nc1ccc(NC(=S)NC(=O)c2ccc([N+](=O)[O-])cc2)cc1 | inconclusive: 8.2 µM [activator, single point] | –
10 | CCC(C)N(C(=O)CSc1nc(-c2cccs2)nc2ccccc12)C1CCS(=O)(=O)C1 (stereo not given) | inconclusive: 16.4 µM [activator, partial curve, poor fit] | –
11 | Cc1ccc(C(=O)C[n+]2ccc(Cc3ccccc3)cc2)cc1 | inactive | –
12 | Cc1ccc(-n2c3c(c(=O)[nH]c2=O)C(NS(=O)(=O)c2ccc(Cl)cc2)(C(F)(F)F)C(=O)N3)cc1 (stereo not given) | inconclusive: 14.6 µM [activator, single point] | –
13 | COC(=O)c1cc(C(=O)Nc2nc3ccccc3[nH]2)cc([N+](=O)[O-])c1 | inactive | –
14 | O=C(Nc1cccc(-c2nc3cccnc3s2)c1)C1c2ccccc2Oc2ccccc21 | inconclusive: 32.6 µM [activator, partial curve, poor fit] | –
15 | CC(=O)c1ccc2c(c1)OCCOCCOCCOCCO2 | inconclusive: 11.6 µM [activator, single point] | –
16 | CC1CCCN(C(=O)C2CC(=O)N(c3ccc(Cl)cc3)C2)C1 (stereo not given) | inactive | –
17 | Cc1nn(CC(=O)NCC(C)c2ccccc2)c(=O)c2cc(-c3ccccc3)nn12 (stereo not given) | inconclusive: 29.1 µM [activator, single point] | –
18 | CO[C@H]1C[C@@H]2CC[C@@H](C)[C@@](O)(O2)C(=O)C(=O)N2CCCC[C@H]2C(=O)O[C@H]([C@H](C)C[C@@H]2CC[C@@H](O)[C@H](OC)C2)CC(=O)[C@H](C)/C=C(\C)[C@@H](O)[C@@H](OC)C(=O)[C@H](C)C[C@H](C)/C=C/C=C/C=C/1C | inconclusive: 33.5 µM [activator, single point] | –
19 | COc1ccc(C)cc1NC(=O)C1CCCN(S(=O)(=O)c2ccc3c(c2)CCCN3C(C)=O)C1 (stereo not given) | inconclusive: 29.1 µM [activator, single point] | –
20 | Cc1nn2c(N3CCN(C)CC3)cc(C(C)(C)C)nc2c1-c1ccccc1 | inconclusive: 20.6 µM [activator, single point] | –
21 | CCCn1c(/C=C/c2ccccc2)nc2ccccc21 | inconclusive: 29.1 µM [activator, partial curve, poor fit] | –
22 | COc1ccc(NS(=O)(=O)c2ccc3oc(SCc4ccc(F)cc4)nc3c2)cc1 | inconclusive: 18.4 µM [activator, partial curve, poor fit] | –

Row | SMILES | Potency | re-replication activation
23 | COc1ccc(Cn2c(=O)[nH]c3cc(C(=O)N4CCN(Cc5ccccc5)CC4)ccc3c2=O)cc1 | inactive | –
24 | CCN(CC)CCn1cnc2c1c(=O)[nH]c(=O)n2Cc1ccccc1 | inconclusive: 29.1 µM [activator, single point] | –
25 | CC(C)N1CCc2c(sc(NC(=O)c3ccc(S(=O)(=O)N4CCCCC4C)cc3)c2C(N)=O)C1 (stereo not given) | active: 20.6 µM | –
26 | Clc1nc(NCc2ccco2)nc(N2CCCCC2)n1 | active: 4.61 µM | –
27 | Cc1ccc(O)c(NC(=O)CCC2CCCCC2)c1 | inconclusive: 16.4 µM [activator, partial curve, poor fit] | –
28 | CCSc1nc2n(n1)C(c1cccc(F)c1)C1=C(CCCC1=O)N2 (stereo not given) | inactive | –
29 | COc1cc(/C=C2/SC(=S)N(CCC(=O)Nc3ccc(C(=O)O)cc3)C2=O)cc(OC)c1OC | inconclusive: 18.4 µM [activator, partial curve, poor fit] | –
30 | CCc1noc(C)c1C(=O)Nc1nc(-c2ccc(NC(C)=O)cc2)cs1 | inactive | –
31 | CCCOc1ccc(N2C(=O)CC(NCC(=O)OCC)C2=O)cc1 (stereo not given) | inactive | –
32 | N#CCCN(C(=O)COC(=O)CCN=C1NS(=O)(=O)c2ccccc21)c1ccc(F)cc1 | inconclusive: 32.6 µM [activator, partial curve, poor fit] | –
33 | CCOCCn1c(=NC(=O)c2cc3ccccc3oc2=O)sc2cc(S(N)(=O)=O)ccc21 | inconclusive: 23.1 µM [activator, single point] | –
34 | O=C1N/C(=C/c2cccn2-c2ccc(F)cc2)C(=O)N1Cc1ccccc1F | inactive | –
35 | CCCCCCCCCCCCCCCC[n+]1cccc2ccccc21 | inconclusive: 29.1 µM [activator, single point] | –
36 | CC(=O)c1ccc2oc3ccccc3c(=O)c2c1 | – | inactive: 0.625% [at 9.22 µM]
37 | Cc1ccccc1CC(=O)N1CCOCC1 | inconclusive: 20.6 µM [activator, partial curve, poor fit] | –
38 | CC(=O)OCCC(C)C | inconclusive: 29.1 µM [activator, single point] | –
39 | Cc1nn(-c2ccccc2)c(C)c1NC(=O)COC(=O)c1ccccc1 | inactive | –
40 | Cc1cc(CCCCCCCCc2cc(C)cc(=O)o2)oc(=O)c1 | inactive | –
41 | CCCCn1c(NCc2ccccn2)nc2ccccc21 | inactive | –
42 | CC(NC(=O)C1CCCN(C(=O)c2ccc(Cl)cc2)C1)c1cccc(C(F)(F)F)c1 (stereo not given) | inconclusive: 5.17 µM [activator, single point] | –
43 | CCCOc1ccc(C(=O)NNC(=S)NC(C)=O)cc1 | inconclusive: 20.6 µM [activator, single point] | –
44 | O=C(O)CN1C(=O)NC2(CCCc3ccccc32)C1=O (stereo not given) | inconclusive: 29.1 µM [activator, single point] | –

Taken from the results shown, 3 compounds:
Row | SMILES | Potency | re-replication activation
11 | Cc1ccc(C(=O)C[n+]2ccc(Cc3ccccc3)cc2)cc1 | inactive | –
12 | Cc1ccc(-n2c3c(c(=O)[nH]c2=O)C(NS(=O)(=O)c2ccc(Cl)cc2)(C(F)(F)F)C(=O)N3)cc1 (stereo not given) | inconclusive: 14.6 µM [activator, single point] | –
13 | COC(=O)c1cc(C(=O)Nc2nc3ccccc3[nH]2)cc([N+](=O)[O-])c1 | inactive | –

Following part:

Row | SMILES | Potency | re-replication activation
45 | COc1ccccc1NC(=O)c1cnc(SC)nc1 | inconclusive: 16.4 µM [activator, single point] | –
46 | CCCn1c(N)c(C(=O)CN(C)CC(=O)Nc2ccc(F)cc2)c(=O)[nH]c1=O | inactive | –
47 | C/C(=N\NC(=O)CNc1cccc2ccccc12)c1ccc(Br)s1 | inconclusive: 29.1 µM [activator, single point] | –
48 | CC(=O)c1ccc(NC(=O)C2CCC(C)(C(=O)O)C2(C)C)cc1 (stereo not given) | inactive | –
49 | Cc1cnc(C(=O)N(CC(C)C)c2c(N)n(CC(C)C)c(=O)[nH]c2=O)cn1 | inactive | –
50 | COc1ccc(NC(=S)NC(NC(=O)c2cccc(Cl)c2)C(Cl)(Cl)Cl)c([N+](=O)[O-])c1 (stereo not given) | inconclusive: 23.1 µM [activator, single point] | –
51 | COC(=O)CC1=C(c2ccc([N+](=O)[O-])cc2)CCC1=O | inconclusive: 20.6 µM [activator, partial curve, poor fit] | –
52 | Cc1ccc(S(=O)(=O)N2C[C@@H]3[C@H]4CC[C@H](C4)[C@@H]3[C@@H](C)[C@@H]2c2cccn2Cc2ccccc2)cc1 | inconclusive: 0.146 µM [activator, full curve, poor fit] | –
53 | CCOC(=O)N1CCN(S(=O)(=O)c2ccc(C(=O)N(CCCN(C)C)c3nc4ccc(CC)cc4s3)cc2)CC1 | inconclusive: 20.6 µM [activator, single point] | –
54 | O=C(NC(=S)NCc1cccnc1)c1ccccc1F | inactive | –
55 | O=C(Nc1ccc(/C=C/c2nc3ccccc3o2)cc1)c1c(F)cccc1F | inconclusive: 18.4 µM [activator, partial curve, poor fit] | –
56 | COc1ccc(C2c3ccc(O)cc3Oc3ncn4nc(-c5cccnc5)nc4c32)cc1OC (stereo not given) | inconclusive: 29.1 µM [activator, single point] | –
57 | COc1ccc(C=O)cc1COc1ccc(F)cc1F | inconclusive: 20.6 µM [activator, single point] | –
58 | COc1cc(-c2nnc3n2N=C(c2ccccc2)CS3)cc(OC)c1OC | inconclusive: 2.31 µM [activator, partial curve, poor fit] | –
59 | CN1C2=CC=CC=CC2=[N+](C)C12C([N+](=O)[O-])=CC(=[N+]([O-])[O-])C=C2[N+](=O)[O-] (stereo not given) | active: 0.651 µM | –
60 | CN(C)c1ccc(-c2nc3ccccc3n2C)cc1 | inconclusive: 29.1 µM [activator, single point] | –
61 | CC(=O)N[C@H](Cc1c[nH]c2ccccc12)C(=O)O | inconclusive: 3.55 µM [activator, partial curve, poor fit] | –
62 | CC(=O)Oc1ccc2ccccc2c1C(NC(=O)C(C)C)c1cccc([N+](=O)[O-])c1 (stereo not given) | inconclusive: 20.6 µM [activator, single point] | –
63 | Cc1cccc(Nc2nc(NCc3ccco3)nc(N3CCOCC3)n2)c1 | inconclusive: 9.2 µM [activator, single point] | –
64 | CCN(CC)Cc1oc(CO)cc(=O)c1O | inconclusive: 0.0046 µM [activator, full curve, poor fit] | –
65 | O=C(C(Cc1ccccc1)N1C(=O)c2ccccc2C1=O)N1c2ccccc2CCc2ccccc21 (stereo not given) | inconclusive: 20.6 µM [activator, single point] | –

Retrieved by compound from the entries so far (three):
Row | SMILES | Potency | re-replication activation
40 | Cc1cc(CCCCCCCCc2cc(C)cc(=O)o2)oc(=O)c1 | inactive | –
25 | CC(C)N1CCc2c(sc(NC(=O)c3ccc(S(=O)(=O)N4CCCCC4C)cc3)c2C(N)=O)C1 (stereo not given) | active: 20.6 µM | –
7 | CC(=O)Nc1ccc(N=Nc2ccccc2)cc1 | inconclusive: 6.51 µM [activator, single point] | –
